Library screening results

Data taken from ChEMBL document CHEMBL3988442, “University of Dundee, Small-Polar-MMV Screening Library” (2021).

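Viability assay of Plasmodium falciparum sporozoites; the read-out is not stated. The concentration is filed as 10 mM, unlikely as a test dose, so the dose is not known. The record gives no direction; compounds that gave an IC50 in retests scored well above the rest, so higher reads as lower viability. Strong results were mostly tested again. Of about 34,000 compounds tested this way, about 280 (0.84%) reached 50% or more in at least one test.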

Values are the deposited “Percent Effect”, in %.
The record does not define 0% and 100%; most values in the screen are far below 50% and negative numbers occur (in some assays of this library far below -100).
This is an unselected part of the compounds tested.
Two or more numbers in one place are separate tests of the same structure; such repeats can differ widely.

structure	Percent Effect
Cc1csc(CNCC(C)c2nc3ccccc3o2)n1 (configuration not stated)	10.3
CN(C)C(CNC(=O)c1cc2c([nH]c1=O)CCCC2=O)c1ccsc1 (configuration not stated)	-3.926
Cc1ccc(CN2CCn3c(C(=O)N(C)C)cnc3C2)cc1.O=C(O)C(F)(F)F	10.4
Cc1nc(C)n(CC2CCCCN2Cc2nc3ccccc3o2)n1 (configuration not stated)	-2.407
c1ccc(-n2cc(CNC3CCc4ncnn4C3)cn2)cc1 (configuration not stated)	5.942
COc1cc(NC2CCCNC2)cc(OC)c1 (configuration not stated)	-5.882
CCN(Cc1cccnc1)CC1CCCO1 (configuration not stated)	-11.69
O=C(NCCn1ccnc1)N1CCN(Cc2ccco2)CC1	-0.4432
O=C(O)C(F)(F)F.[H][C@]12CCN(CC3CC3)C[C@@]1([H])OCCN(C(=O)c1ccco1)C2	9.021
Cc1nc(C2CCN(S(C)(=O)=O)CC2)nc(N2CCCC2)c1C	1.768
[H][C@]12CCN(c3cc(OC)ncn3)[C@@]1([H])C[C@H](C(=O)NC(C)C)O2	7.083
CN(C)[C@@H]1CN(C(=O)c2ccc3ccccc3n2)C[C@H]1O	6.513
COC(=O)Cn1cccc(S(=O)(=O)N2CCC(C)CC2)c1=O	-7.895
O=C(NCCCO)C1CC(=O)N(c2n[nH]c3cccc(F)c23)C1 (configuration not stated)	5.482
COc1ncccc1NC(=O)N(Cc1ccc(C(N)=O)cc1)C1CC1	18.45
CCc1nc(C2CCCN(C(=O)C(C)(C)NS(C)(=O)=O)C2)no1 (configuration not stated)	-3.912
CC(=O)NCC(=O)N1CCN(CC2CC2)c2ncccc2C1	-12.8
CC(Cc1ccsc1)NC(=O)c1cc(N2CCNC2=O)ccc1F (configuration not stated)	74.24 & 61.84
COc1ccc(N(Cc2ccco2)C(=O)COC(C)C)cc1F	10.01
COCC(=O)NC1CCN(c2cccc(OC(F)(F)F)c2)C1=O (configuration not stated)	-17.89
CNS(=O)(=O)c1ccc(CNC(=O)NCC2CCC2)cc1	-4.459
O=C(NCC(F)F)c1ccc(S(=O)(=O)NCCc2cn[nH]c2)cc1	2
CC1CCN(c2nc(O)cc(C3CC(=O)N(C4CCCCC4)C3)n2)CC1 (configuration not stated)	-5.18
CS(=O)(=O)N1CC(c2ccnc(Nc3ccccn3)n2)C1	-7.69
NC(=O)c1cc(C2CCCN(CCCOc3ccccc3)C2)n[nH]1 (configuration not stated)	-3.704
Cn1cnnc1C1CCCN(C(=O)NCCOc2ccccc2)C1 (configuration not stated)	-11.79
O=C(O)C(F)(F)F.[H][C@@]12C[C@H](c3nc(C)no3)CN(Cc3ccc(CC)o3)[C@]1([H])CCO2	9.259
CN(C)CCCC(=O)NC1CC(C)(C)Cc2nc(C(C)(C)C)ncc21 (configuration not stated)	3.76
O=C(CCc1cc(O)no1)N1CCCC(COc2ccc(F)cc2)C1 (configuration not stated)	-1.792
O=C(O)C(F)(F)F.[H][C@]12CCC[C@@]1(COCc1ccncc1)CN(C(=O)c1occc1C)C2	-5.922
C[C@]1(O)CN(CCO)CC[C@@H]1Oc1cccc(F)c1	17.57
CN(C)Cc1cccc(-c2cccnc2C(=O)NCC2CC2)c1	6.16
CN(Cc1ccsc1)C(=O)c1cccc(S(=O)(=O)NCC2CCCO2)c1 (configuration not stated)	-1.262
[H][C@]12CCC[C@@]1(COCc1ccncc1)CN(C1CCOCC1)C2	11.39
Cc1nn(C)c(C)c1C1CCCN1C(=O)c1ccc(NC2CC2)nc1 (configuration not stated)	2.59
Cc1cnc(C(=O)N2CCCCC2c2nc(C)cs2)cn1 (configuration not stated)	-9.785
COc1cccc(S(=O)(=O)CCN2CCCN(C(C)=O)CC2)c1	-1.931
CCN(CC)S(=O)(=O)N1CCc2nc(C3CCNCC3)ncc2C1.Cl	5.396
CC(=O)N1CCC2(CC1)COCCN2CCN(C)C.O=C(O)C(F)(F)F.O=C(O)C(F)(F)F	-5.952 & -16.42 & -13.54
Cn1ncc2c1NC(=O)CC2c1ccccc1Cl (configuration not stated)	-4.848
COc1ccc(-c2nc(C3(NC(=O)OC(C)(C)C)CCC3)no2)cn1	5.673
Cc1ccc(CNC(=O)CN2CCCC(Cn3cncn3)C2)cc1 (configuration not stated)	7.69
Cc1csc(CN2CCC3(CC2)COC(COCC2CC2)C3)n1.O=C(O)C(F)(F)F (configuration not stated)	19.41
CC(C)C(=O)NC1CCN(c2cccc(OC(F)(F)F)c2)C1=O (configuration not stated)	-24.75
CCOc1ncccc1CNC(=O)Nc1ccc(CC)cc1	4.262
CCNC(=O)[C@@H]1C[C@@H](NC(=O)Cc2ccncc2)CN1Cc1ccsc1	1.351
OCC1CCCN1c1cc(N2CCN(c3ccccn3)CC2)ncn1 (configuration not stated)	-8.092
CSCC[C@H](NC(C)=O)c1nc(CCc2ccccc2)n[nH]1	10.53
Cc1cnn(CC(C)NCc2cccc(C#N)c2)c1 (configuration not stated)	-1.754
CC(NCc1cccc2c1OCCO2)c1cc2c(cc1Br)OCCO2 (configuration not stated)	0.1776
CC(=O)N(Cc1noc(C)n1)C1CCN(Cc2cnc(C)s2)C1 (configuration not stated)	-2.823
CCn1cc(CN2CCCn3nc(CNS(C)(=O)=O)cc3C2)c(C)n1	10.03
Cn1cc(C(=O)N2CCCC(Cc3cncc4ccccc34)C2)cn1 (configuration not stated)	8.944
CN(CC1(O)CCCN(c2ccccn2)C1)C(=O)CC1CCOCC1 (configuration not stated)	0.3218
CSCC(C)(O)CNc1ncccc1I (configuration not stated)	-15.65
CC(C)CCn1ccc(NC2CCSC2)n1 (configuration not stated)	-0.9879
CC(C)(C(=O)N[C@@H]1CCC[C@@H](O)[C@@H]1O)c1cccc(F)c1	7.186
CCn1ncc2c1CCCC2NCc1cc(Cl)c(OC)c(OC)c1 (configuration not stated)	-7.977
Cn1cccc1CNC(=O)N(CCO)C1CCCc2ccccc21 (configuration not stated)	-6.201
Cc1cccnc1CN1CC[C@@](C)(O)[C@H](Oc2ccccc2)C1	3.833
CCc1nc(C2CCCN2Cc2nc(CCOC)no2)no1 (configuration not stated)	-6.107
Cc1nc(C)c(CNC(=O)N2CCc3ccccc3C2CO)s1 (configuration not stated)	-12.91
[H][C@]12CC[C@]([H])(CN(S(=O)(=O)N(C)C)C1)N(C/C=C/c1ccc(OC)cc1)C2	-16.54
[H][C@@]12CCN(S(=O)(=O)N(C)C)C[C@@]1([H])O[C@@H](c1ccnc(C)n1)C2	-10.38
CCOc1ccc(CC(CNC(=O)c2sccc2C)C(N)=O)cc1 (configuration not stated)	6.466